Data on 2 molecules can be found in paper doi:10.1101/162958.

In the test the target is T1, C-terminally myc-epitope tagged Stx3 (membrane-anchored Stx3A) (human) (UniProt Q13277).
T1 sequence: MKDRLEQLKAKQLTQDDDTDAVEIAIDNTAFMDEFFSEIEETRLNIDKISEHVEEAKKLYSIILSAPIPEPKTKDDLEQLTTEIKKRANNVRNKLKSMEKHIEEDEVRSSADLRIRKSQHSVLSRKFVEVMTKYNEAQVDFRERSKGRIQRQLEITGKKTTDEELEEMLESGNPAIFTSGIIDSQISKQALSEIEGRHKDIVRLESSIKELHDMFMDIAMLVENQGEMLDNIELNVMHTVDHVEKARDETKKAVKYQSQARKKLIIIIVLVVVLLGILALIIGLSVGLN
Description: affinity purification with mass spectrometry.

These are yes or no findings as the source states them, for the method shown. In cells and extracts the contact can be indirect. These calls come from enrichment with a bait or labelling near it, and not all partners need be listed. Where a sequence is shown, tags or fusion partners need not be part of it.

Consider RanBP5 (endogenous in MDCK cells), for which the binding entry is reported as “binds”.

B1: munc-18b (endogenous in MDCK cells) (protein, UniProt Q28288 1-593)
chain: MAPSGLKEVVGEKILNGVIRSVKKDGEWKVLIMDHPSMRILSSCCKMSDILAEGITIVEDINKRREPIPSLEAIYLLSPTEKSVQALIADFRGTPTFTYKAAHIFFTDTCPEPLFTELSRSRLAKVVKTLKEIHLAFLPYEAQVFSLDAPHSTYNLYCPFRVGERARQIEALAQQIATLCATLQEYPAIRYRKGPEVTAQLANAVLAKLNAFKADNPSLGEGPEKTRSQLLIVDRGADPVSPLLHELTFQAMAYDLLNIEQDTYRYETTGLSEAREKAVLLDEDDDLWVELRHMHIADVSKKVTELLKTFCESKRLTTDKANIKDLSHILKKMPQYQKELNKYSTHLHLADDCMKHFKGSVEKLCGVEQDLAMGSDTEGEKIKDAMKLIVPVLLDAAVPAYDKIRVLLLYILLRNGVSEENLAKLIQHANVQAHSSLIRNLEQLGGTVTNPGGPGTSSRLERRERLEPTYQLSRWTPVIKDVMEDAVEDRLDRKLWPFVSDPAPTSSSQAAVSARFGHWHKNKAGVEMRAGPRLIIYVMGGVAMSEMRAAYEVTRATDGKWEVLIGSSHILTPTRFLDDLKTLDQKLEDIALP
For the molecule B1, the binding result is given as “binds”.
